Where “and” joins values, the source holds several entries; their conditions need not be identical. Equal values may be shown once. Where a name gives a salt, the structure may show the parent alone. ± gives the standard deviation of the averaged measurements. Some of the results follow. Plates or batches differ in their baseline, so values are only roughly comparable.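 Culture-activated primary human stellate myofibroblasts, where regained lipid droplets signal inactivation. Value: share of Hoechst-counted cells above a per-plate Bodipy cutoff, in duplicate wells, with DMSO negative and nortriptyline positive controls on each plate. Hits: a control-normalized score above the plate's top-tenth-percentile nortriptyline wells, or one of a plate's three best wells. Final well concentrations are not given.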

These results are taken from the supplement of paper PMC9135407.

The test system of this assay is primary human hepatic stellate cells (donor 1). Kind of assay: percent Bodipy-positive cells; higher = more lipid droplet accumulation. Conditions: 48 h. How it is done: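 Primary lipid accumulation screen in primary human hepatic stellate cell myofibroblasts (donor 1, passage 8) in 384-well plates. 100 nL of library compound was pin-transferred into 30 µL medium in duplicate, and cells were treated for 48 h. The 'Scaled' score combines distance from plate baseline, toxicity and reproducibility penalties, and is normalised to nortriptyline (positive) and DMSO (negative) controls on each plate. A hit is defined as scaled >0.85 or among the top 3 wells per plate.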

Where [1] appears, read: library stock concentration: 10 mM.
Setting [2] is: library stock concentration: 3.33 mM.
Setting [3] is: library stock concentration: 80 uM.
[4] abbreviates: library stock concentration: 400 uM.
The mark [5] stands for this setting: library stock concentration: 2 mM.
Where [6] appears, read: library stock concentration: 1 mM.

For the compound `NC(N)=NC(=O)c1nc(Cl)c(N)nc1N`, under setting [1], the “percent Bodipy-positive cells” value was 4.8 ± 1.2%.

Regarding `CCCCC/C=C\C/C=C\CC1OC1C/C=C\CCCC(=O)O` (centres undefined) [8,9-Epoxyeicosatrienoic acid], the “percent Bodipy-positive cells” value (library stock concentration: 100 uM) came to 13.4 ± 9.6%.

As to `COc1cccc2c1C(=O)c1c(O)c3c(c(O)c1C2=O)C[C@@](O)(C(C)=O)C[C@@H]3O[C@H]1C[C@H](N)[C@H](O)[C@H](C)O1` [Daunorubicin hydrochloride], the “percent Bodipy-positive cells” value is 100%. Also, the “percent Bodipy-positive cells” value under setting [1] is 100%.

Regarding `COc1cccc2c1C(=O)c1c(O)c3c(c(O)c1C2=O)C[C@@](O)(C(C)=O)C[C@@H]3O[C@H]1C[C@H](N)[C@H](O)[C@H](C)O1` [Daunorubicin HCl], the “percent Bodipy-positive cells” value reads like this: under setting [2], 100%; under setting [1], 100%. As for `COc1cccc2c1C(=O)c1c(O)c3c(c(O)c1C2=O)C[C@@](O)(C(C)=O)C[C@@H]3O[C@H]1C[C@H](N)[C@H](O)[C@H](C)O1`, the “percent Bodipy-positive cells” value under setting [1] came out at 100%. In the case of `CNC(=O)c1cc(Oc2ccc(NC(=O)Nc3ccc(Cl)c(C(F)(F)F)c3)cc2)ccn1`, the “percent Bodipy-positive cells” value came out at 14.5 ± 1.3% under setting [3], 26.6 ± 11% under setting [4], 8.44 ± 3.4% under setting [5] and 81.9 ± 18% under setting [1].

In the case of `CNC(=O)c1cc(Oc2ccc(NC(=O)Nc3ccc(Cl)c(C(F)(F)F)c3)cc2)ccn1` [Sorafenib  (Nexavar, BAY43-9006) (0.4 mM)], the “percent Bodipy-positive cells” value under setting [4] was determined as 25.1 ± 7.2%.

With `CNC(=O)c1cc(Oc2ccc(NC(=O)Nc3ccc(Cl)c(C(F)(F)F)c3)cc2)ccn1` [Sorafenib Tosylate], the “percent Bodipy-positive cells” value came to 13.1 ± 2.7% under setting [2] and 33.69 ± 0.11% under setting [1]. For `CNC(=O)c1cc(Oc2ccc(NC(=O)Nc3ccc(Cl)c(C(F)(F)F)c3)cc2)ccn1` [Sorafenib] the same measures were 26.4 ± 27% and 11.7 ± 1.1%. Turning to `CNC(=O)c1cc(Oc2ccc(NC(=O)Nc3ccc(Cl)c(C(F)(F)F)c3)cc2)ccn1` [Sorafenib  (Nexavar, BAY43-9006) (2 mM)], the “percent Bodipy-positive cells” value under setting [5] was determined as 33.9 ± 0.61%. For the compound `O=C(O)CCC/C=C\C[C@@H]1[C@@H](/C=C/[C@@H](O)COc2ccccc2)[C@H](O)C[C@@H]1O` [16-phenoxy tetranor Prostaglandin F2.alpha.], the “percent Bodipy-positive cells” value under setting [6] came to 20.5 ± 3.5%. For the compound `CNC(=O)c1ccccc1Nc1cc(Nc2ccc(N3CCOCC3)cc2OC)ncc1C(F)(F)F`, the “percent Bodipy-positive cells” value was found to be 4.29 ± 2.2% under setting [3], 7.08 ± 1.3% under setting [4], 3.65 ± 0.69% under setting [5] and 4.77 ± 0.39% under setting [1].

As to `O=C(Nc1cccc(C(=O)Nc2ccc(S(=O)(=O)O)c3cc(S(=O)(=O)O)cc(S(=O)(=O)O)c23)c1)Nc1cccc(C(=O)Nc2ccc(S(=O)(=O)O)c3cc(S(=O)(=O)O)cc(S(=O)(=O)O)c23)c1`, the “percent Bodipy-positive cells” value under setting [1] was found to be 13.3 ± 3.9%. Consider `Cc1ccc(S(=O)(=O)Cc2nc(-c3ccc(C(=O)NCc4cccnc4)cc3)oc2C)cc1`, for which the “percent Bodipy-positive cells” value was 24 ± 0.99% under setting [2] and 24.9 ± 1.5% under setting [1]. As for `C=CC(=O)Nc1cc(Nc2nccc(-c3cn(C)c4ccccc34)n2)c(OC)cc1N(C)CCN(C)C`, the “percent Bodipy-positive cells” value under setting [2] stood at 99.57 ± 0.6%.

Take `Cc1cn([C@H]2C=C[C@@H](CO)O2)c(=O)[nH]c1=O`: the “percent Bodipy-positive cells” value under setting [1] was 14.3% and 30.5%.

As to `Cc1cn([C@H]2C=C[C@@H](CO)O2)c(=O)[nH]c1=O` [Stavudine (d4T)], the “percent Bodipy-positive cells” value was 16 ± 11% under setting [2] and 18.9 ± 0.2% under setting [1]. Regarding `CC(=O)NS(=O)(=O)c1ccc(N)cc1` [Sulfacetamide sodic hydrate], the “percent Bodipy-positive cells” value amounted to 34.2 ± 8.7%. Regarding `CC(=O)NS(=O)(=O)c1ccc(N)cc1` [Sulfacetamide], the “percent Bodipy-positive cells” value (library stock concentration: 9.3 mM) stood at 21 ± 12%; the “percent Bodipy-positive cells” value under setting [1] was 16.9% and 26.6%. For the compound `CC(=O)NS(=O)(=O)c1ccc(N)cc1` [Sulfacetamide Sodium], the “percent Bodipy-positive cells” value came out at 12.1 ± 2.5% under setting [2] and 19.1 ± 3.9% under setting [1].

Consider `CCCCCCCC/C=C\CCCCCCCC(=O)N[C@@H](CO)C(=O)O` [N-Oleoyl-L-Serine], for which, under setting [6], the “percent Bodipy-positive cells” value stood at 14 ± 4.5%. With `C=C1CC[C@@H]2[C@](C)(CO)[C@H](O)CC[C@@]2(C)[C@@H]1C/C=C1/C(=O)OC[C@H]1O` [Andrographolide], the “percent Bodipy-positive cells” value is, setting by setting: under setting [2], 16.4 ± 2.6%; under setting [1], 62.8 ± 5.7%. With `Nc1ncnc2c1nc(Br)n2C1OC2COP(=O)(O)O[C@@H]2C1O` (some centres undefined) [8-Bromo-cAMP sodium], the “percent Bodipy-positive cells” value under setting [1] is 42.6 ± 3%.

Regarding `OCc1ccccc1O[C@@H]1O[C@H](CO)[C@@H](O)[C@H](O)[C@H]1O` [Salicin], the “percent Bodipy-positive cells” value is 13.2 ± 5% under setting [2]; 16.5 ± 0.71% (library stock concentration: 7 mM); 16.6% and 36.6% under setting [1]. On to `CCCCCCCCCCCCC/C=C/[C@@H](O)[C@H](CO)NC(=O)CCCCC` [C-6 Ceramide], for which the “percent Bodipy-positive cells” value under setting [6] was 11.2 ± 5.6%. For `COc1ccc(NS(=O)(=O)c2ccc(I)cc2)cc1N1CCN(C)CC1`, the “percent Bodipy-positive cells” value under setting [1] came to 41.8 ± 3%. `CCc1cc(Cl)c(OC)c(C(=O)NC[C@@H]2CCCN2CC)c1O.Cl` [Eticlopride hydrochloride]: under setting [1], the “percent Bodipy-positive cells” value is 59.9 ± 1%.

Consider `CN1C(CCl)Nc2cc(Cl)c(S(N)(=O)=O)cc2S1(=O)=O` (centres undefined), for which, under setting [1], the “percent Bodipy-positive cells” value worked out at 44.9 ± 9.9%.

On to `CN1C(CCl)Nc2cc(Cl)c(S(N)(=O)=O)cc2S1(=O)=O` (centres undefined) [Methyclothiazide], for which the “percent Bodipy-positive cells” value by setting is: under setting [2], 12.4 ± 4.6%; under setting [1], 37.5 ± 19%.

Turning to `C=CC1=C(C(=O)O)N2C(=O)[C@@H](NC(=O)/C(=N\O)c3csc(N)n3)[C@H]2SC1`, the “percent Bodipy-positive cells” value under setting [1] was determined as 7.19 ± 2%. As for `C=CC1=C(C(=O)O)N2C(=O)[C@@H](NC(=O)/C(=N\O)c3csc(N)n3)[C@H]2SC1` [Cefdinir], the “percent Bodipy-positive cells” value runs as follows: (library stock concentration: 5.1 mM) 8.95 ± 1.6%; under setting [1], 42.6 ± 8.7%. Take `Nc1cc(N2CCCCC2)nc(N)[n+]1[O-]` [Minoxidil]: the “percent Bodipy-positive cells” value worked out at 23.4 ± 3.2%. Where the note is “library stock concentration: 9.6 mM”, the “percent Bodipy-positive cells” value was 13.9% and 3.25%. `Nc1ncnc2c1ncn2[C@@H]1O[C@H](COP(=O)(O)OP(=O)(O)OP(=O)(O)OP(=O)(O)OC[C@@H]2O[C@H](n3cnc4c(N)ncnc43)C(O)[C@@H]2O)[C@H](O)C1O` (some centres undefined) [P1,P4-Di(adenosine-5')tetraphosphate triammonium]: under setting [1], the “percent Bodipy-positive cells” value came to 49.6 ± 1.2%. Same read-out and setting: the figure for `CS(=O)(=O)Nc1c(O)ccc2c1CCCC2C1=NCCN1` (centres undefined) is 10.44 ± 0.037%. With `COc1ccc2cc([C@H](C)C(=O)O)ccc2c1` [Naproxen], the “percent Bodipy-positive cells” value was determined as 27.6 ± 1.4%. Also, under setting [2], the “percent Bodipy-positive cells” value came out at 6.48 ± 3.1%. The “percent Bodipy-positive cells” value (library stock concentration: 8.7 mM) stood at 7.51 ± 2.1%. For the same compound, the “percent Bodipy-positive cells” value under setting [1] came to 16.9 ± 1.7%. For `COc1ccc2cc([C@H](C)C(=O)O)ccc2c1` [Naproxen sodium], the “percent Bodipy-positive cells” value under setting [1] was determined as 7.2 ± 1.4%.
